According to patent US9700516B2, “Compositions and methods for reducing overdose” (priority 2014, dated 2017):
This continues a long series; more values of the same kind are listed elsewhere.

Assay: Effect of alkalinizing agents on the pH of a solution of 0.1 N HCl with a starting pH of 2.0
Type: physicochemical
Experimental: Various alkalinizing agents were added to a solution of 0.1 N HCl with a starting pH of 2.0 and the pH of the solution was tested at different time points.

[O]=[Mg] [MgO, magnesium oxide]
pH (80 mg powder/200 ml, 1 min): 2.50 | pH (80 mg powder/200 ml, 2 min): 4.09 | pH (80 mg powder/200 ml, 3 min): 5.72 | pH (80 mg powder/200 ml, 50 min): 10.13 | pH (80 mg powder/200 ml, 60 min): 10.13 | pH (80 mg, Granular/200 ml, 1 min): 2.17 | pH (80 mg, Granular/200 ml, 2 min): 2.30 | pH (80 mg, Granular/200 ml, 3 min): 2.45 | pH (80 mg, Granular/200 ml, 40 min): 9.47 | pH (80 mg, Granular/200 ml, 50 min): 9.47 | pH (80 mg, Granular/200 ml, 60 min): 9.47 | pH (100 mg powder/200 ml, 1 min): 2.37 | pH (100 mg powder/200 ml, 2 min): 2.37 | pH (100 mg powder/200 ml, 3 min): 2.37 | pH (100 mg powder/200 ml, 50 min): 9.02 | pH (100 mg powder/200 ml, 60 min): 9.02 | pH (120 mg powder/200 ml, 1 min): 4.45 | pH (120 mg powder/200 ml, 2 min): 5.50 | pH (120 mg powder/200 ml, 3 min): 6.01 | pH (120 mg powder/200 ml, 40 min): 8.21 | pH (120 mg powder/200 ml, 50 min): 8.21 | pH (120 mg powder/200 ml, 60 min): 8.21

[Mg+2].[OH-].[OH-] [magnesium hydroxide]
pH (60 mg per 320 mL, 0 min): 2.03 | pH (60 mg per 320 mL, 1 min): 2.17 | pH (60 mg per 320 mL, 30 min): 2.50 | pH (60 mg per 320 mL, 40 min): 2.50 | pH (60 mg per 320 mL, 50 min): 2.50 | pH (60 mg per 320 mL, 60 min): 2.53 | pH (60 mg per 500 mL, 0 min): 2.01 | pH (60 mg per 500 mL, 1 min): 2.06 | pH (60 mg per 500 mL, 30 min): 2.19 | pH (60 mg/200 ml, 1 min): 2.50 | pH (60 mg/200 ml, 2 min): 2.66 | pH (60 mg/200 ml, 3 min): 2.83 | pH (60 mg/200 ml, 4 min): 2.92 | pH (60 mg/200 ml, 5 min): 2.96 | pH (60 mg/200 ml, 6 min): 2.99 | pH (60 mg/200 ml, 7 min): 2.99 | pH (60 mg/200 ml, 8 min): 3.00 | pH (60 mg/200 ml, 9 min): 3.00 | pH (60 mg/200 ml, 10 min): 3.00 | pH (60 mg/200 ml, 20 min): 3.01 | pH (60 mg/200 ml, 30 min): 3.01 | pH (60 mg/200 ml, 40 min): 3.01 | pH (60 mg/200 ml, 50 min): 3.01 | pH (60 mg/200 ml, 60 min): 3.01 | pH (71 mg/200 ml, 1 min): 2.45 | pH (71 mg/200 ml, 2 min): 2.83 | pH (71 mg/200 ml, 3 min): 3.18 | pH (71 mg/200 ml, 4 min): 3.48 | pH (71 mg/200 ml, 5 min): 3.70 | pH (71 mg/200 ml, 6 min): 3.91 | pH (71 mg/200 ml, 7 min): 4.13 | pH (71 mg/200 ml, 8 min): 4.31 | pH (71 mg/200 ml, 9 min): 4.48 | pH (71 mg/200 ml, 10 min): 4.63 | pH (71 mg/200 ml, 20 min): 5.40 | pH (71 mg/200 ml, 30 min): 5.72 | pH (71 mg/200 ml, 40 min): 6.05 | pH (71 mg/200 ml, 50 min): 6.73 | pH (71 mg/200 ml, 60 min): 7.08 | pH (81 mg/200 ml, 1 min): 2.50 | pH (81 mg/200 ml, 2 min): 3.01 | pH (81 mg/200 ml, 3 min): 3.66 | pH (81 mg/200 ml, 4 min): 5.01 | pH (81 mg/200 ml, 5 min): 5.30 | pH (81 mg/200 ml, 6 min): 5.50 | pH (81 mg/200 ml, 7 min): 5.65 | pH (81 mg/200 ml, 8 min): 5.80 | pH (81 mg/200 ml, 9 min): 5.87 | pH (81 mg/200 ml, 10 min): 5.92 | pH (81 mg/200 ml, 20 min): 6.60 | pH (81 mg/200 ml, 30 min): 6.92 | pH (81 mg/200 ml, 40 min): 7.25 | pH (81 mg/200 ml, 50 min): 7.51 | pH (81 mg/200 ml, 60 min): 8.00 | pH (90 mg per 320 mL, 0 min): 2.05 | pH (90 mg per 320 mL, 1 min): 2.19 | pH (90 mg per 320 mL, 30 min): 3.37 | pH (90 mg per 320 mL, 40 min): 3.35 | pH (90 mg per 320 mL, 50 min): 3.35 | pH (90 mg per 320 mL, 60 min): 3.36 | pH (100 mg per 320 mL, 0 min): 2.03 | pH (100 mg per 320 mL, 1 min): 2.15 | pH (100 mg per 320 mL, 30 min): 6.75 | pH (100 mg per 320 mL, 40 min): 6.92 | pH (100 mg per 320 mL, 50 min): 7.01 | pH (100 mg per 320 mL, 60 min): 7.09 | pH (100 mg per 500 mL, 0 min): 2.03 | pH (100 mg per 500 mL, 1 min): 2.10 | pH (100 mg per 500 mL, 30 min): 2.41 | pH (100 mg per 500 mL, 40 min): 2.41 | pH (100 mg per 500 mL, 50 min): 2.41 | pH (100 mg per 500 mL, 60 min): 2.41 | pH (100 mg/200 ml, 1 min): 2.50 | pH (100 mg/200 ml, 2 min): 3.56 | pH (100 mg/200 ml, 3 min): 5.25 | pH (100 mg/200 ml, 4 min): 5.58 | pH (100 mg/200 ml, 5 min): 5.80 | pH (100 mg/200 ml, 6 min): 5.97 | pH (100 mg/200 ml, 7 min): 6.10 | pH (100 mg/200 ml, 8 min): 6.22 | pH (100 mg/200 ml, 9 min): 6.34 | pH (100 mg/200 ml, 10 min): 6.43 | pH (100 mg/200 ml, 20 min): 7.70 | pH (100 mg/200 ml, 30 min): 8.69 | pH (100 mg/200 ml, 40 min): 8.90 | pH (100 mg/200 ml, 50 min): 9.10 | pH (100 mg/200 ml, 60 min): 9.10 | pH (120 mg per 320 mL, 0 min): 2.05 | pH (120 mg per 320 mL, 1 min): 2.25 | pH (120 mg per 320 mL, 30 min): 9.23 | pH (120 mg per 320 mL, 40 min): 9.27 | pH (120 mg per 320 mL, 50 min): 9.24 | pH (120 mg per 500 mL, 0 min): 2.01 | pH (120 mg per 500 mL, 1 min): 2.10 | pH (120 mg per 500 mL, 30 min): 2.60 | pH (120 mg per 500 mL, 40 min): 2.60 | pH (180 mg per 500 mL, 0 min): 2.05 | pH (180 mg per 500 mL, 1 min): 2.34 | pH (180 mg per 500 mL, 30 min): 9.14 | pH (180 mg per 500 mL, 40 min): 9.16 | pH (180 mg per 500 mL, 50 min): 9.19 | pH (180 mg per 500 mL, 60 min): 9.20 | pH (200 mg per 500 mL, 0 min): 2.03 | pH (200 mg per 500 mL, 1 min): 2.19 | pH (240 mg per 500 mL, 0 min): 2.00 | pH (240 mg per 500 mL, 1 min): 2.17
